Measured values taken from patent US8729028B2, “Noggin-derived peptide and use thereof” (Caregen Co., Ltd., priority 2009, dated 2014).
These are yes or no findings as the source states them, for the method shown. Binding seen in cells or lysates may run through a third protein. Some binding calls cover weakened binding; strength is not graded here.

Target: T1, rh-BMP4 protein (R&D Systems, Inc., USA) (human, UniProt P12644 293-408)
T1 construct: Bought protein; also called BMP protein
T1 sequence (looked up): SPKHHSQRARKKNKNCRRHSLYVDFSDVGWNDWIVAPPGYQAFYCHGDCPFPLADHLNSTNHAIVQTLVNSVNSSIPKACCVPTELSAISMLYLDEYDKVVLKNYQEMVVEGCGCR
Test: streptavidin column pull-down of rh-BMP4 on the biotinylated peptide; eluate read by SDS-PAGE and anti-BMP4 western blot

B1: biotinylated peptide (peptide of SEQ ID NO: 1 with the N-terminus modified with biotin) (peptide)
peptide: ELIEHGGGRPAD
modifications: N-terminus modified with biotin
binding: binds
